Measured data: PubChem BioAssay AID1259308 (NCATS, 2017)

Screen: 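Candidate targets for better recombinant protein yield in mammalian cells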 (primary screen)
System: human HEK293 embryonic kidney cells stably expressing firefly luciferase (HEK-CMV-Luc2-Hygro)
Reagent: single siRNA against human genes, 0.8 pmol siRNA per well
Duration: 72 h
Measurement: 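Reporter luminescence and viable-cell signal on separate replicate plates, given as percent of non-targeting control and median/MAD z-scores, plus per-cell luciferase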
Reading the numbers: total luciferase, z-score and total luciferase, % of control: higher = more reporter protein produced; luciferase per cell, z-score: higher = more reporter output per viable cell; viable cells, % of control: higher = more viable cells
Rule for the call: 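An siRNA counts as active if its total luciferase robust z-score exceeds 3; genes with two or more such siRNAs out of three were retested with fresh siRNAs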
Meaning of the calls: active = raised luciferase; inactive = no rise
The whole screen tested about 59,000 reagents; shown is an unselected part. About 1,510 of all reagents (2.6%) were called active. 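Calls use total luciferase alone and ignore viability, so some active siRNAs may act by altering cell number.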 Unmarked entries are inactive. The numbers tell different reagents against one gene apart.

The first 2 records, ahead of the listing:
| total luciferase, z-score | total luciferase, % of control | luciferase per cell, z-score | viable cells, % of control | target gene | reagent |
| --- | --- | --- | --- | --- | --- |
| -1.21 | 57.9 | -0.687 | 77.5 | C3orf52 | 1 |
| 0.877 | 99.3 | 1.05 | 84.1 | C3orf52 | 2 |

Results, from the first entry:
| total luciferase, z-score | total luciferase, % of control | luciferase per cell, z-score | viable cells, % of control | target gene | reagent |
| --- | --- | --- | --- | --- | --- |
| -1.21 | 57.9 | -0.687 | 77.5 | C3orf52 | 1 |
| 0.877 | 99.3 | 1.05 | 84.1 | C3orf52 | 2 |
| 0.741 | 96.6 | 0.379 | 97.7 | C3orf52 | 3 |
| 1.12 | 104 | 0.976 | 90 | IFRD2 | 1 |
| -2.37 | 34.7 | 0.165 | 37.2 | IFRD2 | 2 |
| -1.04 | 61.3 | -1.31 | 96.7 | IFRD2 | 3 |
| 0.505 | 91.9 | 0.554 | 88.8 | SMAGP | 1 |
| -1.12 | 59.7 | -0.219 | 70.6 | SMAGP | 2 |
| 0.667 | 95.2 | 1.27 | 76.1 | SMAGP | 3 |
| 1.43 | 110 | 1.35 | 86.5 | PHF20L1 | 1 |
| 0.883 | 99.4 | 1.46 | 75.7 | PHF20L1 | 2 |
| 0.604 | 93.9 | 0.123 | 102 | PHF20L1 | 3 |
| 1.21 | 106 | 0.642 | 99.9 | KLRF1 | 1 |
| 0.148 | 84.8 | 0.369 | 86 | KLRF1 | 2 |
| -0.792 | 66.1 | 0.615 | 62.8 | KLRF1 | 3 |
| -2.87 | 24.8 | -3.41 | 67.9 | PPP1R15B | 1 |
| -2.91 | 23.9 | -3.08 | 60.1 | PPP1R15B | 2 |
| -2.15 | 39.1 | -0.828 | 54.3 | PPP1R15B | 3 |
| -0.302 | 75.9 | -0.302 | 91.8 | OR52D1 | 1 |
| -0.00569 | 81.8 | 0.144 | 88 | OR52D1 | 2 |
| 0.908 | 99.9 | 2.56 | 56.9 | OR52D1 | 3 |
| -0.00356 | 81.8 | -0.414 | 102 | PARP11 | 1 |
| -0.212 | 77.7 | -0.739 | 105 | PARP11 | 2 |
| 0.985 | 101 | 0.0355 | 112 | PARP11 | 3 |
| -1.48 | 52.4 | -1.62 | 89.7 | EDAR | 1 |
| 1.14 | 105 | 1.07 | 88.2 | EDAR | 2 |
| 1.15 | 105 | 0.942 | 91.3 | EDAR | 3 |
| -1.63 | 49.6 | -1.92 | 91.7 | LOC642249 | 1 |
| 2.07 | 123 | 1.66 | 88.9 | LOC642249 | 2 |
| 1.13 | 104 | 1.08 | 87.9 | LOC642249 | 3 |
| -0.327 | 75.4 | -0.463 | 95.2 | CNDP2 | 1 |
| -0.0246 | 81.4 | -0.222 | 96.4 | CNDP2 | 2 |
| 0.202 | 85.9 | 0.518 | 83.8 | CNDP2 | 3 |
| -2.86 | 24.9 | -2.91 | 59.9 | RPS4X | 1 |
| -2.15 | 39.1 | -0.0202 | 44 | RPS4X | 2 |
| -2.69 | 28.3 | -2.48 | 60.7 | RPS4X | 3 |
| -0.83 | 65.4 | -0.233 | 77.7 | GJA8 | 1 |
| 0.616 | 94.1 | 0.488 | 92.5 | GJA8 | 2 |
| 1.9 | 120 | 2.81 | 63.8 | GJA8 | 3 |
| -0.51 | 71.7 | -0.566 | 93 | ACMSD | 1 |
| 0.219 | 86.2 | 0.441 | 85.8 | ACMSD | 2 |
| -1.19 | 58.3 | -0.945 | 83.5 | ACMSD | 3 |
| -0.406 | 73.8 | -0.975 | 107 | IFI27L1 | 1 |
| 3.2 (active) | 145 | 2.42 | 85.9 | IFI27L1 | 2 |
| 1.46 | 111 | 0.298 | 115 | IFI27L1 | 3 |
| 2.35 | 129 | 1.56 | 95.3 | HIGD1A | 1 |
| -0.367 | 74.6 | -0.401 | 92.6 | HIGD1A | 2 |
| 1.97 | 121 | 0.969 | 105 | HIGD1A | 3 |
| 3.31 (active) | 148 | 2.3 | 90 | SLC7A1 | 1 |
| -0.834 | 65.3 | -0.831 | 90.8 | SLC7A1 | 2 |
| -0.955 | 62.9 | -0.853 | 88 | SLC7A1 | 3 |
| 0.605 | 93.9 | 0.664 | 88.1 | TMX1 | 1 |
| 0.609 | 94 | 0.621 | 89.2 | TMX1 | 2 |
| 0.706 | 95.9 | 1.27 | 76.8 | TMX1 | 3 |
| 0.00608 | 82 | -0.491 | 104 | PLIN3 | 1 |
| 0.457 | 91 | 1.18 | 74.5 | PLIN3 | 2 |
| 1.54 | 113 | 0.603 | 107 | PLIN3 | 3 |
| 0.831 | 98.4 | 1.1 | 82.4 | SDC1 | 1 |
| 0.59 | 93.6 | 0.691 | 87.2 | SDC1 | 2 |
| -1.96 | 43 | -2.2 | 85.8 | SDC1 | 3 |
| 0.788 | 97.6 | 0.17 | 104 | RNF135 | 1 |
| 0.122 | 84.3 | 0.591 | 80.6 | RNF135 | 2 |
| 0.279 | 87.4 | -0.157 | 102 | RNF135 | 3 |
| -0.152 | 78.9 | 0.126 | 85.2 | LOC644058 (retired record) | 1 |
| -0.687 | 68.2 | -0.207 | 80.5 | LOC644058 (retired record) | 2 |
| -2.84 | 25.5 | -2.86 | 60.5 | LOC644058 (retired record) | 3 |
| -1.02 | 61.6 | -1.47 | 101 | RCHY1 | 1 |
| 2.18 | 125 | 1.54 | 93.2 | RCHY1 | 2 |
| -0.141 | 79.1 | -0.518 | 101 | RCHY1 | 3 |
| -1.28 | 56.5 | -1.54 | 94.6 | COTL1 | 1 |
| 1.54 | 113 | 2.43 | 66.2 | COTL1 | 2 |
| 0.216 | 86.2 | 0.715 | 79.8 | COTL1 | 3 |
| -0.898 | 64 | -0.713 | 86.3 | IL13RA1 | 1 |
| -0.772 | 66.5 | -0.538 | 85.7 | IL13RA1 | 2 |
| 0.0718 | 83.3 | -0.295 | 101 | IL13RA1 | 3 |
